US20240352105A1, “COMPOSITIONS AND METHODS FOR NEUTRALIZING ANTIGENS” (PACAGEN, INC, priority 2023, published 2024)
No constants are given. Whether binding was seen depends on the method and setting. Some results given as binding are weak or reduced against the parent protein; the word gives no strength. For some assays here: Sequences can lack the tags named with a protein.

Amino acid sequences for entries named in this document (tags omitted). Residues count along the entry.
UniProt O18873, residues 19-174: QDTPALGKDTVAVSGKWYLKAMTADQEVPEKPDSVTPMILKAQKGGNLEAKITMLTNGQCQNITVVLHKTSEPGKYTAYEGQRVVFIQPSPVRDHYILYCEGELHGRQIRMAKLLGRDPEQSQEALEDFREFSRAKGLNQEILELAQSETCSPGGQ

T1: recombinant His-tagged Fel D1 (cat) (UniProt P30438+P30440)
T1 sequence (looked up) 1: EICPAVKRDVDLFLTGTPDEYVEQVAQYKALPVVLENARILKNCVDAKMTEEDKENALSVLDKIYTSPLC
T1 sequence (looked up) 2: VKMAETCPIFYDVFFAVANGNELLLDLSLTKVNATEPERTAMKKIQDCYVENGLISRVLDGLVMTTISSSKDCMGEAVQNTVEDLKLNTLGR

B1: 370 VH + 378 VL (antibody, V domains shown)
VH: EVQLVESGGGLAQPGGSLRLSCAASGFTFNNYAMTWVRQAPGKGLDWVSAISDSGRSTFSADSVKGRFTISRDNSKNTLYLQMDSLRAEDTALYYCAKHRNWNYPVFDYWGQGTLVTVSS
VL: DIQLTQSPSFLSASVGDRVTITCWASQGISSYLAWYQQKPGKAPKLLIYSASTLQSGVPSRFSGSGSGTEFTLTISSLQPEDFATYYCQQLNSYPFTFGPGTKVDIK
B2: SDAB22112-2-B06 (VHH)
VHH: QVQLVESGGGLVQPGGSLRLSCAASGFTFRLAAMGWYRQAPEKEREWVASITGPGTDTNYADSVKGRFTVSRDNAKNTVYLQMNSLKPEDTAVYYCRGMGYWGKGTLVTVSS
notes: anti-Can f1 alpaca VHH
B3: SDAB22112-1-D12 (VHH)
VHH: AVQLVDSGGGLVQAGGSLRLACAASGRTFDTYAVGWFRQAPGKERDVVASITWTSGSTWYADFVKGRFTISKDNAKNTVYLQMNNLSPEDTAVYYCGARNQIYTRWDSWGQGTQVTVSS
notes: anti-Can f1 alpaca VHH
B4: SDAB22112-2-D08 (VHH)
VHH: QVKLEESGGGLVQAGGSLRLSCVASGRTFSRWHTGWYRQAPGREREFVATLRASGGDTYYADSVKGRFTISRDNAKNTVYLQMNSLKPEDTAVYYCNVWANWGAPPSDFSSWGQGTQVTVSS
notes: anti-Can f1 alpaca VHH
B5: SDAB22112-1-C10 (VHH)
VHH: QLQLVESGGGLVQPGGSLRLSCAASGFTFSSYSMSWYRQAPGKERELVATIDTDGRTNYADSVKGRFTISRDNAKNSVYLQMNSLKPEDTAVYYCNRRQLGVDYWGQGTQVTVSS
notes: anti-Can f1 alpaca VHH
B6: SDAB22112-1-D12-3 (VHH)
VHH: QVQLVESGGGLVQPGGSLRLSCAASGFTFSNYGMSWVRQAPGKGLEWVSDVNSSGSRRFYVDSVKGRFTISRDNAKNTVFLQMNSLKPEDSAVYYCVKLAEAGTLIHVGSWGQGTRVTVSS
notes: anti-Can f1 alpaca VHH
B7: SDAB22112-1-C9 (VHH)
VHH: QLQLVESGGGLVQPGGSLRLSCVGSGFTFSLASMGWYRQAPGKEREWVASISSLDASTNYADSVKGRFTISRDNAKRMVYLQMNNLKSEDTAVYYCKAMNYWGKGTQVTVSS
notes: anti-Can f1 alpaca VHH
B8: SDAB22112-1-B6-B05 (VHH)
VHH: QLQLVESGGGLVQPGGSLRLSCAASRSIFSSYVMAWYRRAPGKKRELVASIANVGSNTDYASFAKGRFTISRDDDKSRDNDKITVYLQMNSLNPEDTAVYYCNAWLGAGSDYWGQGTQVTVSS
notes: anti-Can f1 alpaca VHH

These binders were tested against T1, recombinant His-tagged Fel D1 (cat) (assay: ELISA with known Fel D1 antibodies).

binding, binds:
B1

What follows are binders tested against recombinant His-tagged Can f1 (dog (Canis familiaris)) (UniProt O18873) (assay: ELISA, antigen coated).

binding, binds:
B2
B3
B4
B5
B6
B7
B8
